Experimental data reported in article PMC3517593.
These are yes or no findings as the source states them, for the method shown. Binding seen in cells or lysates may run through a third protein. Tags and fused reporters may be left off the sequences shown.

By UniProt entry, the sequences of proteins in these tests, tags left out.
UniProt P84022: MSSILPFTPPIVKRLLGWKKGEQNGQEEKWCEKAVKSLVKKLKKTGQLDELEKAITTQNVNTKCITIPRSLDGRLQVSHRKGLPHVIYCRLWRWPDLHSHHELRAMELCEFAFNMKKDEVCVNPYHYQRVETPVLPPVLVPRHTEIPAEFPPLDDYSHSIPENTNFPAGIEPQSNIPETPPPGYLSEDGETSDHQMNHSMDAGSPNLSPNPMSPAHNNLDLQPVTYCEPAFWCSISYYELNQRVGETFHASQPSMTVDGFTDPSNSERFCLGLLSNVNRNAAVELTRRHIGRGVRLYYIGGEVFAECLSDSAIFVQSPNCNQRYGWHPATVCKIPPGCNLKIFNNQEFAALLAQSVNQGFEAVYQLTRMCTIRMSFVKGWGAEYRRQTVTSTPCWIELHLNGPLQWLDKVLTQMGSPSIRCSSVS

Target: T1, HA-tagged ΔNp73α (UniProt O15350)
T1 sequence: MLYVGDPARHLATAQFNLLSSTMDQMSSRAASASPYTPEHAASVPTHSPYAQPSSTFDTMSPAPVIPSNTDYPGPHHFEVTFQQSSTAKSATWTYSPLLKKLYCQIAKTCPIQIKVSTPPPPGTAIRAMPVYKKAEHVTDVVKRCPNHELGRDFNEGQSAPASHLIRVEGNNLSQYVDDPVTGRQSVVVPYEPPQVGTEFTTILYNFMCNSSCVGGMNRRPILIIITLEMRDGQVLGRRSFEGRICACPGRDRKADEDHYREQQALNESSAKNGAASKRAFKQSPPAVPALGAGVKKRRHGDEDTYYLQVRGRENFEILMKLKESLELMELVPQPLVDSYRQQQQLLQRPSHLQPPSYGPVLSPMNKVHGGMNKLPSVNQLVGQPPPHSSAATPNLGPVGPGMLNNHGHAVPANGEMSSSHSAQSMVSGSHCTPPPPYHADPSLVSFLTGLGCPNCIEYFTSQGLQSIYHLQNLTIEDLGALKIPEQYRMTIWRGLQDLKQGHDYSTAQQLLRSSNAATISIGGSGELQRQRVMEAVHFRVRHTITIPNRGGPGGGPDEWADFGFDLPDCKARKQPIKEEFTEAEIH
Experiment: co-IP; immunoprecipitation with α-HA antibody from extracts of soluble proteins of Hek293ΔNp73 cells, left untreated, treated with 1 ng/ml TGF-β1, ΔNp73 induced (1 µg/ml tetracycline) or both; blotted with α-HA or α-Smad3; no DNA added

binding: no binding
Substance: endogenous Smad3 (from UniProt P84022 1-425)
